The nature of this test: qHTS Assay for Lipid Storage Modulators in Drosophila S3 Cells.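 On cell number change: cells counted by Cell Tracker Red CMTPX staining in the red channel.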 The settings on record: BODIPY lipid droplet fluorescence, 18-24 h; for cell number change: measured here: cell count max response, cells fed with added oleic acid. A digest of the protocol: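 Drosophila S3 cells loaded with oleic acid (400 uM, as added) and compounds at several concentrations; lipid droplets imaged by 488-nm laser-scanning cytometry, 500–530 nm intensity and object ratio to cell channel. Percent activity normalized to 20 uM Triacsin C.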
Background: Quantitative high-throughput screening tests each substance at several concentrations.

Where [1] appears, read: measured here: cell number channel AC50, cells fed with added oleic acid.
[2] abbreviates: measured here: lipid fluorescence (Fed channel) AC50, cells fed with added oleic acid.

Molecules are shown by their SMILES. The list shows a part of the results. Further columns of the screen follow, without active or inactive calls. Compounds called inactive in the main read-out are mostly missing here. The note in brackets gives the kind of curve behind each potency; many fits are weak.

As to `COc1cc(-c2nc3c4ccccc4nc(=S)n3[nH]2)cc(OC)c1OC`, the cell number change was -38.5%. The AC50 (in general, the concentration at which the activity in the assay is half-maximal) under setting [1] was 8.2 µM [falling, partial curve, poor fit]. For the same compound, the AC50 under setting [2] is 5.8 µM [falling, partial curve].

As for `CSCCC(NS(=O)(=O)c1cccs1)C(=O)NCc1ccc(C)cc1` (stereo unspecified), the cell number change was -9.39%. Further, the AC50 under setting [2] is 0.58 µM [rising, full curve, poor fit].

Turning to `CCNc1nc(NCC)nc(N(C)N)n1`, the AC50 under setting [2] was 0.58 µM [rising, single point].

Turning to `Cc1ccc(Nc2nnc(SCc3cc(=O)n4ccsc4n3)s2)c(C)c1`, the cell number change was determined as 3.43%. Under setting [2], the AC50 is 0.517 µM [rising, full curve].

On to `COc1ccc(/C=N/Nc2nncn2N)cc1Br`, for which the cell number change was -4.4%. Also, under setting [2], the AC50 was 29.1 µM [falling, single point].

`COc1ccccc1Oc1cc(-n2nc(C)cc2C)ncn1`: the cell number change was -38.7%. Besides, under setting [1], the AC50 was 3.26 µM [falling, full curve]. In addition, the AC50 under setting [2] is 2.91 µM [rising, single point].

For the compound `COc1ccc(OC)c(CNC(=O)CCCn2ccc3cc(S(=O)(=O)N4CCCC4)ccc32)c1`, the cell number change stood at 4.2%. Under setting [2], the AC50 is 0.103 µM [falling, full curve, poor fit].

On to `Cc1ccc(S(=O)(=O)N2CCN(C(=O)c3cc4c(s3)CCC(C)C4)CC2)cc1` (stereo unspecified), for which the cell number change is -7.5%.

In the case of `O=C(CCl)Nc1nc(-c2ccco2)c(-c2ccco2)s1`, the cell number change came to 83.3%. For the same compound, the AC50 under setting [1] is 0.411 µM [rising, full curve].

`O=C(NNc1ccc(Cl)cc1)c1c(F)cccc1Cl`: the cell number change is -42.9%. Moreover, the AC50 under setting [1] was 32.6 µM [falling, single point].

Regarding `COCCN(C(=O)COC(=O)CNC(=O)c1cccs1)c1c(N)n(Cc2ccccc2)c(=O)[nH]c1=O`, the cell number change is -31.6%. In addition, the AC50 under setting [1] is 0.92 µM [falling, full curve, poor fit].

Take `CC(=O)Nc1ccc(C(=O)OCC(=O)Nc2ccccc2Sc2ccccc2)cc1`: the cell number change came out at 45.6%. Also, the AC50 under setting [1] is 7.31 µM [rising, partial curve]. Further, the AC50 under setting [2] is 8.2 µM [rising, partial curve].

Regarding `COc1ccc(-n2c(COc3ccc(Cl)cc3)nnc2SCc2ccc(C#N)cc2)cc1`, the cell number change is -13.2%. Further, the AC50 under setting [2] is 1.46 µM [rising, full curve].

Turning to `N=c1c2c(ncn1CCN1CCOCC1)Oc1ccc3ccccc3c1C2c1ccccc1` (stereo unspecified), the concentration at half-maximal activity (AC50) by setting is: under setting [1], 5.17 µM [rising, single point]; under setting [2], 3.26 µM [rising, partial curve].

Turning to `CCn1c(N2CCN(CC(=O)c3c[nH]c4ccccc34)CC2)nc2c1c(=O)[nH]c(=O)n2C`, the cell number change amounted to 0.769%. Under setting [2], the AC50 is 0.116 µM [rising, single point].

As for `COc1ccc(N2C(=O)N3[C@H](c4ccc(Cl)cc4)[C@@H]4C(=O)N(C5CCCCC5)C(=O)[C@@H]4[C@]3(C)C2=O)cc1`, the cell number change was determined as 22.2%.

Regarding `CCOc1cc(/C=N\NC(=O)C2C(=O)NCC2c2ccccc2)ccc1OC` (stereo unspecified), the cell number change worked out at 49%. Also, under setting [1], the AC50 was 29.1 µM [rising, single point].

With `O=C(NC(=S)Nc1cccc(Cl)c1N1CCCC1)c1ccc(-c2cccc([N+](=O)[O-])c2)o1`, the cell number change came out at 59.6%. Further, the AC50 under setting [1] is 16.4 µM [rising, single point].

On to `CSc1nnc(CCNS(=O)(=O)c2ccccc2Br)n1C`, for which the cell number change amounted to 11.2%.

For the compound `Cc1ccc(COc2ccc(Br)cc2/C=N/O)cc1`, the cell number change is -22.9%. In addition, the AC50 under setting [1] is 0.92 µM [rising, full curve, poor fit]. Besides, the AC50 under setting [2] was 23.1 µM [falling, single point].

As to `c1ccc(CNc2nc(-c3cccs3)nc3ccccc23)nc1`, the cell number change was -2.84%. In addition, the AC50 under setting [2] is 29.1 µM [rising, partial curve, poor fit].

Take `CC(C)c1ccc(/C=C/C(=O)NC2=NCCS2)cc1`: the cell number change is -27%. The AC50 under setting [2] was 0.291 µM [rising, partial curve, poor fit].

In the case of `CCCCNS(=O)(=O)c1ccc2nc(-c3cccnc3)cc(C(=O)NCC(OC)OC)c2c1`, the cell number change worked out at 55.6%. For the same compound, the AC50 under setting [1] is 10.3 µM [rising, partial curve, poor fit]. The AC50 under setting [2] was 23.1 µM [rising, single point].

`O=C(Cc1ccccc1[N+](=O)[O-])NCc1ccncc1`: the cell number change is -33.5%.

For `Cc1ccc(NC(=O)c2c(C)nc3ccccn23)cc1C`, the cell number change is 27.9%.

Regarding `CCOC(=O)N1CCN(C(=O)CCCOc2ccccc2)CC1`, the cell number change was 1.52%.

On to `CCOc1ccccc1NC(=O)CC1SC(=N)N(c2ccccc2)C1=O` (stereo unspecified), for which the cell number change was -14.9%. Moreover, under setting [2], the half-maximal activity concentration (AC50) was 13 µM [falling, partial curve, poor fit].

As to `O=Cc1ccc(-c2ccc(C(=O)O)cc2)o1`, the cell number change was -34.2%. In addition, the AC50 under setting [1] is 0.0206 µM [falling, full curve]. Further, the half-maximal activity concentration (AC50) under setting [2] is 0.13 µM [falling, full curve, poor fit].

With `CC(C)(C)OC(=O)NNC(=O)c1ccc(Cl)cc1`, the cell number change was -69.8%. In addition, the AC50 under setting [1] was 18.4 µM [falling, single point].

Consider `O=C(OCC(=O)N1CCCC1)c1c2c(nc3ccccc13)CCCCC2`, for which the cell number change is 34.6%. Also, the AC50 under setting [1] is 5.17 µM [rising, full curve, poor fit]. Under setting [2], the AC50 is 5.17 µM [rising, full curve, poor fit].

Turning to `COc1cc(C(=O)NCCN=C2NS(=O)(=O)c3ccccc32)cc(OC)c1OC`, the cell number change was -19.2%. Moreover, the concentration at half-maximal activity (AC50) under setting [2] is 23.1 µM [falling, partial curve, poor fit].

`O=C(CSc1nnc(CNC(=O)c2ccc(F)cc2)o1)Nc1ccc2c(c1)OCCO2`: the cell number change was found to be 37.3%. In addition, the AC50 under setting [1] is 16.4 µM [rising, partial curve, poor fit].

As to `CCOc1ccc(-c2n[nH]c(C)c2-c2ccccn2)c(O)c1`, the cell number change came to 58.2%. Further, the AC50 under setting [1] was 29.1 µM [rising, single point].

As to `Cc1ccc(-n2nc3c(c2NC(=O)C2CC2)CS(=O)(=O)C3)cc1C`, the cell number change was found to be 43.5%. In addition, the half-maximal activity concentration (AC50) under setting [1] was 23.1 µM [rising, single point]. For the same compound, the AC50 under setting [2] was 23.1 µM [rising, single point].

`Cc1ccc(C2C(C#N)=C(N)Oc3cc(N)ccc32)cc1` (stereo unspecified): the cell number change is -20.5%.

With `O=S(=O)(NCc1ccccc1)c1ccc(NC(=S)NCc2ccco2)cc1`, the cell number change was -26.7%. For the same compound, the AC50 under setting [2] is 29.1 µM [falling, single point].

Turning to `COc1ccccc1/C=C1\SC(=S)N(N2C(=O)CCCC2=O)C1=O`, the cell number change was -5.71%. Besides, the AC50 under setting [2] was 1.16 µM [falling, single point].

For the compound `Cc1n[nH]c(=S)n1-c1cccc(Cl)c1`, the AC50 runs as follows: under setting [1], 6.51 µM [rising, single point]; under setting [2], 18.4 µM [rising, single point].
